# Measured values: the supplement of paper PMC11438910
# The list shows a part of the results. The signal is at background level for most entries.
# B1: 4-127.3 (protein)
# chain 1: QVQLQESGPGLVKPSETLSLTCAVSGYSISSGYGWSWIRQPPGKGLEWIGYIGGSSGSTNYNPSLKSRVTVSKDTSKNQFSLKLSSVTAADTAVYYCARADYCTSTTCYGPNRFDVWGPGVLVTVSS
# chain 2: QAAPTQSPSVSGSAGQSVTISCTGSSSDIGYYNGVSWYQHHPGKAPKLMIYEVSKRPSGVSNRFSGSKSGNTASLTISGLQAADEADYFCSSYAGSGTYIFGAGTRLTVL
# B2: 4-173.1 (protein)
# chain 1: QLQLQESGPGLVKPSETLSLTCAVSGASISSNYWSWIRQAPGKGLEWIGRISGSSGSTDYNPSLKSRVTISTDTSKNQFSLKLNSVTAADTAVYYCARVSYWGHYGDYWGQGVLVTVSS
# chain 2: QPVLTQPSSHSASPGAPARLTCTLSSGFSVGDFWIRWYQQKPGSPPRYLLYYHSDSDKHQGSGVPSRFSGSNDASANAGILHISGLQPEDEADYYCCTWHGNSKTQIFGAGTRLTVL
# Tests used:
# Experiment in all cases: fluorescence intensity of antibody binding to polysaccharide-coupled beads; higher = stronger binding
# [1] = target: pneumococcal polysaccharide C-Poly-1
# Protocol: (§1)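 Recombinant rhesus-murine chimeric IgG1 antibodies were tested against antigen-coupled MagPlex beads in a 96-plex Luminex direct immunoassay (dLIA). The beads carried pneumococcal capsular polysaccharides of 93 serotypes plus C-polysaccharides. Antibody was added at 0.1–12,500 ng/mL for 1 h, then PE anti-mouse IgG, and net MFI was read on a Bio-Plex 3D. Only the rhesus variable regions are printed; constant regions are murine IgG1/kappa/lambda, and the signal peptide is MGWSCIILFLVATATGVHS.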
# [2] = target: pneumococcal polysaccharide C-Poly-2
# Protocol: as §1
# [3] = target: pneumococcal polysaccharide Pn1
# Protocol: as §1
# [4] = target: pneumococcal polysaccharide Pn10A
# Protocol: as §1
# [5] = target: pneumococcal polysaccharide Pn10B
# Protocol: as §1
# [6] = target: pneumococcal polysaccharide Pn10C
# Protocol: as §1
# [7] = target: pneumococcal polysaccharide Pn10F
# Protocol: as §1
# [8] = target: pneumococcal polysaccharide Pn11A
# Protocol: as §1
# [9] = target: pneumococcal polysaccharide Pn11B
# Protocol: as §1
# [10] = target: pneumococcal polysaccharide Pn11C
# Protocol: as §1
# [11] = target: pneumococcal polysaccharide Pn11D
# Protocol: as §1
# [12] = target: pneumococcal polysaccharide Pn11F
# Protocol: as §1
# [13] = target: pneumococcal polysaccharide Pn12A
# Protocol: as §1
# [14] = target: pneumococcal polysaccharide Pn12B
# Protocol: as §1
# [15] = target: pneumococcal polysaccharide Pn12F
# Protocol: as §1
# [16] = target: pneumococcal polysaccharide Pn8
# Protocol: as §1
# [17] = target: pneumococcal polysaccharide Pn9A
# Protocol: as §1
# [18] = target: pneumococcal polysaccharide Pn9L
# Protocol: as §1
# [19] = target: pneumococcal polysaccharide Pn9N
# Protocol: as §1
# [20] = target: pneumococcal polysaccharide Pn9V
# Protocol: as §1
# [21] = antibody concentration 0.1 ng/mL
# [22] = antibody concentration 0.534724 ng/mL
# [23] = antibody concentration 2.8593 ng/mL
# [24] = antibody concentration 15.2894 ng/mL
# [25] = antibody concentration 81.7561 ng/mL
# [26] = antibody concentration 437.17 ng/mL
# [27] = antibody concentration 2337.65 ng/mL
# [28] = antibody concentration 12500 ng/mL
binder,measurement,setting,value
B1,fluorescence intensity,[1]; [21],27.2 MFI
same,fluorescence intensity,[1]; [22],27.2 MFI
same,fluorescence intensity,[1]; [23],26.2 MFI
same,fluorescence intensity,[1]; [24],28.5 MFI
same,fluorescence intensity,[1]; [25],26.2 MFI
same,fluorescence intensity,[1]; [26],30.5 MFI
same,fluorescence intensity,[1]; [27],37.2 MFI
same,fluorescence intensity,[1]; [28],106 MFI
same,fluorescence intensity,[2]; [21],21.5 MFI
same,fluorescence intensity,[2]; [22],20.5 MFI
same,fluorescence intensity,[2]; [23],22 MFI
same,fluorescence intensity,[2]; [24],22 MFI
same,fluorescence intensity,[2]; [25],21.5 MFI
same,fluorescence intensity,[2]; [26],24.2 MFI
same,fluorescence intensity,[2]; [27],31.8 MFI
same,fluorescence intensity,[2]; [28],95.5 MFI
same,fluorescence intensity,[3]; [21],14.5 MFI
same,fluorescence intensity,[3]; [22],12.5 MFI
same,fluorescence intensity,[3]; [23],14 MFI
same,fluorescence intensity,[3]; [24],15 MFI
same,fluorescence intensity,[3]; [25],14.5 MFI
same,fluorescence intensity,[3]; [26],14.5 MFI
same,fluorescence intensity,[3]; [27],17.5 MFI
same,fluorescence intensity,[3]; [28],34.5 MFI
same,fluorescence intensity,[4]; [21],28 MFI
same,fluorescence intensity,[4]; [22],25.5 MFI
same,fluorescence intensity,[4]; [23],25.5 MFI
same,fluorescence intensity,[4]; [24],27.5 MFI
same,fluorescence intensity,[4]; [25],27 MFI
same,fluorescence intensity,[4]; [26],26.5 MFI
same,fluorescence intensity,[4]; [27],28.5 MFI
same,fluorescence intensity,[4]; [28],36.5 MFI
same,fluorescence intensity,[5]; [21],24.2 MFI
same,fluorescence intensity,[5]; [22],25 MFI
same,fluorescence intensity,[5]; [23],24.5 MFI
same,fluorescence intensity,[5]; [24],22 MFI
same,fluorescence intensity,[5]; [25],26 MFI
same,fluorescence intensity,[5]; [26],23.5 MFI
same,fluorescence intensity,[5]; [27],25.5 MFI
same,fluorescence intensity,[5]; [28],31.5 MFI
same,fluorescence intensity,[6]; [21],16 MFI
same,fluorescence intensity,[6]; [22],17.8 MFI
same,fluorescence intensity,[6]; [23],18.8 MFI
same,fluorescence intensity,[6]; [24],18 MFI
same,fluorescence intensity,[6]; [25],16.5 MFI
same,fluorescence intensity,[6]; [26],17.5 MFI
same,fluorescence intensity,[6]; [27],18.5 MFI
same,fluorescence intensity,[6]; [28],23.5 MFI
same,fluorescence intensity,[7]; [21],20.8 MFI
same,fluorescence intensity,[7]; [22],19.5 MFI
same,fluorescence intensity,[7]; [23],21.5 MFI
same,fluorescence intensity,[7]; [24],20.5 MFI
same,fluorescence intensity,[7]; [25],20 MFI
same,fluorescence intensity,[7]; [26],20 MFI
same,fluorescence intensity,[7]; [27],21.2 MFI
same,fluorescence intensity,[7]; [28],23.5 MFI
same,fluorescence intensity,[8]; [21],30.8 MFI
same,fluorescence intensity,[8]; [22],30.8 MFI
same,fluorescence intensity,[8]; [23],30.2 MFI
same,fluorescence intensity,[8]; [24],26.5 MFI
same,fluorescence intensity,[8]; [25],29 MFI
same,fluorescence intensity,[8]; [26],31.5 MFI
same,fluorescence intensity,[8]; [27],36 MFI
same,fluorescence intensity,[8]; [28],46.8 MFI
same,fluorescence intensity,[9]; [21],25 MFI
same,fluorescence intensity,[9]; [22],26 MFI
same,fluorescence intensity,[9]; [23],27.2 MFI
same,fluorescence intensity,[9]; [24],27.8 MFI
same,fluorescence intensity,[9]; [25],26.8 MFI
same,fluorescence intensity,[9]; [26],29 MFI
same,fluorescence intensity,[9]; [27],32 MFI
same,fluorescence intensity,[9]; [28],34.5 MFI
same,fluorescence intensity,[10]; [21],24.5 MFI
same,fluorescence intensity,[10]; [22],21.5 MFI
same,fluorescence intensity,[10]; [23],22.5 MFI
same,fluorescence intensity,[10]; [24],23 MFI
same,fluorescence intensity,[10]; [25],22.5 MFI
same,fluorescence intensity,[10]; [26],23.5 MFI
same,fluorescence intensity,[10]; [27],30.5 MFI
same,fluorescence intensity,[10]; [28],88 MFI
same,fluorescence intensity,[11]; [21],23.8 MFI
same,fluorescence intensity,[11]; [22],24 MFI
same,fluorescence intensity,[11]; [23],22.5 MFI
same,fluorescence intensity,[11]; [24],23 MFI
same,fluorescence intensity,[11]; [25],23.8 MFI
same,fluorescence intensity,[11]; [26],24 MFI
same,fluorescence intensity,[11]; [27],27 MFI
same,fluorescence intensity,[11]; [28],54.5 MFI
same,fluorescence intensity,[12]; [21],14.5 MFI
same,fluorescence intensity,[12]; [22],14.5 MFI
same,fluorescence intensity,[12]; [23],14.2 MFI
same,fluorescence intensity,[12]; [24],15.5 MFI
same,fluorescence intensity,[12]; [25],16 MFI
same,fluorescence intensity,[12]; [26],15.8 MFI
same,fluorescence intensity,[12]; [27],16.2 MFI
same,fluorescence intensity,[12]; [28],22.5 MFI
same,fluorescence intensity,[13]; [21],16.5 MFI
same,fluorescence intensity,[13]; [22],16.5 MFI
same,fluorescence intensity,[13]; [23],14.8 MFI
same,fluorescence intensity,[13]; [24],15.2 MFI
same,fluorescence intensity,[13]; [25],15.5 MFI
same,fluorescence intensity,[13]; [26],16 MFI
same,fluorescence intensity,[13]; [27],17.5 MFI
same,fluorescence intensity,[13]; [28],29.5 MFI
same,fluorescence intensity,[14]; [21],18 MFI
same,fluorescence intensity,[14]; [22],16 MFI
same,fluorescence intensity,[14]; [23],16 MFI
same,fluorescence intensity,[14]; [24],15.8 MFI
same,fluorescence intensity,[14]; [25],16 MFI
same,fluorescence intensity,[14]; [26],17 MFI
same,fluorescence intensity,[14]; [27],18 MFI
same,fluorescence intensity,[14]; [28],28 MFI
same,fluorescence intensity,[15]; [21],19.5 MFI
same,fluorescence intensity,[15]; [22],19.5 MFI
same,fluorescence intensity,[15]; [23],19.2 MFI
same,fluorescence intensity,[15]; [24],20.8 MFI
same,fluorescence intensity,[15]; [25],19.5 MFI
same,fluorescence intensity,[15]; [26],21 MFI
same,fluorescence intensity,[15]; [27],21.5 MFI
same,fluorescence intensity,[15]; [28],39 MFI
B2,fluorescence intensity,[16]; [21],22.5 MFI
same,fluorescence intensity,[16]; [22],22.5 MFI
same,fluorescence intensity,[16]; [23],22.5 MFI
same,fluorescence intensity,[16]; [24],22.5 MFI
same,fluorescence intensity,[16]; [25],22 MFI
same,fluorescence intensity,[16]; [26],24 MFI
same,fluorescence intensity,[16]; [27],28.5 MFI
same,fluorescence intensity,[16]; [28],34.5 MFI
same,fluorescence intensity,[17]; [21],20 MFI
same,fluorescence intensity,[17]; [22],21 MFI
same,fluorescence intensity,[17]; [23],19.5 MFI
same,fluorescence intensity,[17]; [24],18.5 MFI
same,fluorescence intensity,[17]; [25],19.5 MFI
same,fluorescence intensity,[17]; [26],19.5 MFI
same,fluorescence intensity,[17]; [27],21 MFI
same,fluorescence intensity,[17]; [28],32 MFI
same,fluorescence intensity,[18]; [21],18.5 MFI
same,fluorescence intensity,[18]; [22],18.5 MFI
same,fluorescence intensity,[18]; [23],19.5 MFI
same,fluorescence intensity,[18]; [24],17 MFI
same,fluorescence intensity,[18]; [25],19.5 MFI
same,fluorescence intensity,[18]; [26],16.5 MFI
same,fluorescence intensity,[18]; [27],19.5 MFI
same,fluorescence intensity,[18]; [28],25.5 MFI
same,fluorescence intensity,[19]; [21],17 MFI
same,fluorescence intensity,[19]; [22],16 MFI
same,fluorescence intensity,[19]; [23],16 MFI
same,fluorescence intensity,[19]; [24],17.8 MFI
same,fluorescence intensity,[19]; [25],16.5 MFI
same,fluorescence intensity,[19]; [26],16.5 MFI
same,fluorescence intensity,[19]; [27],18.5 MFI
same,fluorescence intensity,[19]; [28],26 MFI
same,fluorescence intensity,[20]; [21],15 MFI
same,fluorescence intensity,[20]; [22],15.5 MFI
same,fluorescence intensity,[20]; [23],15 MFI
same,fluorescence intensity,[20]; [24],16 MFI
same,fluorescence intensity,[20]; [25],15.2 MFI
same,fluorescence intensity,[20]; [26],15 MFI
same,fluorescence intensity,[20]; [27],16.5 MFI
same,fluorescence intensity,[20]; [28],22 MFI

# Retrieved one by one from the entries so far, 3 records:
binder,measurement,setting,value
B1,fluorescence intensity,[12]; [23],14.2 MFI
same,fluorescence intensity,[1]; [25],26.2 MFI
same,fluorescence intensity,[2]; [27],31.8 MFI

# A different layout for part of the listing above.
binder | measurement | setting | value
B1 | fluorescence intensity | [14]; [22] | 16 MFI
same | fluorescence intensity | [14]; [23] | 16 MFI

# Some of the entries so far, tab-delimited.
binder	measurement	setting	value
B1	fluorescence intensity	[10]; [25]	22.5 MFI
same	fluorescence intensity	[10]; [26]	23.5 MFI
